Binding data for one substance are collected here from paper PMC8042451.

By UniProt entry, the sequences of proteins in these tests, tags left out. Where a name states a change or a piece, a line headed by the entry shows the natural chain unless it says otherwise.
UniProt Q8TEW0: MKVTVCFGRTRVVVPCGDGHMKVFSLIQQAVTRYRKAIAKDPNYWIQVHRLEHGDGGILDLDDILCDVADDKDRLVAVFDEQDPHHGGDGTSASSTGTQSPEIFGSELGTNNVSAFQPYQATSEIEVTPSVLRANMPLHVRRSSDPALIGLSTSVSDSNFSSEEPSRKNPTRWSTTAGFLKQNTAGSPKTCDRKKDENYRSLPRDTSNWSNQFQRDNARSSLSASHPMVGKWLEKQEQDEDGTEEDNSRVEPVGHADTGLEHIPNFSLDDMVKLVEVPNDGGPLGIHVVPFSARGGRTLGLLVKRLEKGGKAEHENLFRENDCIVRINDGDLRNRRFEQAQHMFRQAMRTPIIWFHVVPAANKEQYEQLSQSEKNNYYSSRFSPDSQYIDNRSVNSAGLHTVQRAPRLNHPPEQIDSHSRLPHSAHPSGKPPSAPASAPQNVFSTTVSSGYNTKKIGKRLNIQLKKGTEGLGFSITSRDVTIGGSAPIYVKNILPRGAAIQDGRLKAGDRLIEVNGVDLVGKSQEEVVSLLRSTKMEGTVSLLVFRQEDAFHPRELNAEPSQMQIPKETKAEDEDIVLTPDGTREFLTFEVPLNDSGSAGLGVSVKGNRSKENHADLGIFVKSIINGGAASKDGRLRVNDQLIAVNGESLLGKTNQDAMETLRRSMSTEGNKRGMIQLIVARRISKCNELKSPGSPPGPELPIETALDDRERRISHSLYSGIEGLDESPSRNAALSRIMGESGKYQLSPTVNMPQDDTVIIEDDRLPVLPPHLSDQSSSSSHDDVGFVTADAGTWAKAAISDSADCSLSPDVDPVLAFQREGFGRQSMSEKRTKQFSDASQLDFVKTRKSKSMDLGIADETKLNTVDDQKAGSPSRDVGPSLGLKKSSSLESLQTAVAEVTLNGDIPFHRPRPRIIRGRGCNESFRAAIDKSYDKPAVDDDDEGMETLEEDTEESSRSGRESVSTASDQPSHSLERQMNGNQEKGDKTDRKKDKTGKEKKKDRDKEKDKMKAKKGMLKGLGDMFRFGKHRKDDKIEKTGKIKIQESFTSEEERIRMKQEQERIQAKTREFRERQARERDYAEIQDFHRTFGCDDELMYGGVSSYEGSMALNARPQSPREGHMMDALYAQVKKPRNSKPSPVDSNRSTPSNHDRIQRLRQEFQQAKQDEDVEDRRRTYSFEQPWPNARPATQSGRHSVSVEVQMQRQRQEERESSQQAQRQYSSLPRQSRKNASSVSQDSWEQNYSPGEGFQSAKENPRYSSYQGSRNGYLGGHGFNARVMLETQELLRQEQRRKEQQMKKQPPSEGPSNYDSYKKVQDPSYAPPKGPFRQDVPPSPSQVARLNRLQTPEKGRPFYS
UniProt A0A2R8QCI3: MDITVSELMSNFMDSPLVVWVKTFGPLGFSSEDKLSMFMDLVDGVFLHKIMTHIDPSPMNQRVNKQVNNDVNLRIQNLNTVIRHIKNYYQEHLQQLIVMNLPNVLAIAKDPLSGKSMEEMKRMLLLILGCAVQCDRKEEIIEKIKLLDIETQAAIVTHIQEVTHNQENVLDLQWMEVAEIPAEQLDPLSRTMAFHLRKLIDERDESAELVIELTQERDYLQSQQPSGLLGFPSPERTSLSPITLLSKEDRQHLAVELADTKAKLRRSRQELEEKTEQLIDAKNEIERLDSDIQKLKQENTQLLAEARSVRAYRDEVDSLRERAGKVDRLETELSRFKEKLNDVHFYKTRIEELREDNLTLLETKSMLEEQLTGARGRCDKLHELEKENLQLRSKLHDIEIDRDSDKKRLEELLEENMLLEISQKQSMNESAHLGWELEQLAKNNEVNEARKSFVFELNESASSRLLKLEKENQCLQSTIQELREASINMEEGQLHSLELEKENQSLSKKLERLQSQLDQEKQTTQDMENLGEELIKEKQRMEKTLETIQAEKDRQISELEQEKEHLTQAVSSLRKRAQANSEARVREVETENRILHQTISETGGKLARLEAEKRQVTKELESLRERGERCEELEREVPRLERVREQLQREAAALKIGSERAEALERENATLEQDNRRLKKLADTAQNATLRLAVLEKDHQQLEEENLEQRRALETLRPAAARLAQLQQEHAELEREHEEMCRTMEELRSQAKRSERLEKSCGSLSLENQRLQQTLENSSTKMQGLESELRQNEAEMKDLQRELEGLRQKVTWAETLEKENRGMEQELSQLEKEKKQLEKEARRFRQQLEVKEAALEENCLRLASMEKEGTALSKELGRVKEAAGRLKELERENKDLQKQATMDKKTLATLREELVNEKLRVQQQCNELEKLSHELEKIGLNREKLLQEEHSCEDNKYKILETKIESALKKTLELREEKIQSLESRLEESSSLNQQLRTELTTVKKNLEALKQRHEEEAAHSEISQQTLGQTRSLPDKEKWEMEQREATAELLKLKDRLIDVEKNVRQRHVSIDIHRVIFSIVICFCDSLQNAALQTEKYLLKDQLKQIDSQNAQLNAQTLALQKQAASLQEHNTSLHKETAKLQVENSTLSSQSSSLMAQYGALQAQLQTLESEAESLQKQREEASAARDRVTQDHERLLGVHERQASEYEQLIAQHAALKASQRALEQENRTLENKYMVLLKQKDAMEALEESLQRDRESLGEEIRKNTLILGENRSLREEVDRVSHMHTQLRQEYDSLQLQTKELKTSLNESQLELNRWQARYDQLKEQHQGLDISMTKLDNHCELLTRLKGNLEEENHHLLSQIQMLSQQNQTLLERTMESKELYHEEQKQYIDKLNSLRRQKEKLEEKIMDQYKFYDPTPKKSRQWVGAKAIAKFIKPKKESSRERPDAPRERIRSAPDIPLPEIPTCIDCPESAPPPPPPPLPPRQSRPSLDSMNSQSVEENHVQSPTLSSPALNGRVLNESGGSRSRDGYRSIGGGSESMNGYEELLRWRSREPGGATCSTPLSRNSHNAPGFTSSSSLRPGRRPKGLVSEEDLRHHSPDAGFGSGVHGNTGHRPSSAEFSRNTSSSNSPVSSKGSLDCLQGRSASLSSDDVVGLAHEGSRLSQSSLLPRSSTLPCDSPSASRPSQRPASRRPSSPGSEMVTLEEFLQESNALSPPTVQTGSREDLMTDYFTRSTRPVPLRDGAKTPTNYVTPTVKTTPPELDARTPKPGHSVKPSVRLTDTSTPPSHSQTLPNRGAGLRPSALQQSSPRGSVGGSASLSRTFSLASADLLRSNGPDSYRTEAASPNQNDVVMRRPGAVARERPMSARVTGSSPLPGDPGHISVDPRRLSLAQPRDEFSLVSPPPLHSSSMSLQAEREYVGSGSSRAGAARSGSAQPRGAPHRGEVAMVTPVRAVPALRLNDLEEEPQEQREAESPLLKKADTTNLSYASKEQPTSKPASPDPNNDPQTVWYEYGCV

These are yes or no findings as the source states them, for the method shown. In cells and extracts the contact can be indirect. A result given as binding can be weak or reduced; the word gives no strength.

The target in this experiment is GST-tagged PDZ domains of ParD3 (UniProt Q8TEW0). In words: pull-down; purified GST-tagged PDZ domains of ParD3 or Dvl immobilised on glutathione-Sepharose beads; lysates of transfected HEK293T cells; binding 4 h at 4 °C; immunoblot; only the target purified.

Turning to “EGFP-tagged C terminus of zebrafish Daple (from UniProt A0A2R8QCI3) (domain or fragment)”, the binding result is “binds”.
